Experimental data reported in the supplement of paper PMC10849652.
Some of the results follow.

Amino acid sequences for entries named in this document (tags omitted). A change or cut given only in a name is not applied to a line headed by its entry.
UniProt Q6ZMG9: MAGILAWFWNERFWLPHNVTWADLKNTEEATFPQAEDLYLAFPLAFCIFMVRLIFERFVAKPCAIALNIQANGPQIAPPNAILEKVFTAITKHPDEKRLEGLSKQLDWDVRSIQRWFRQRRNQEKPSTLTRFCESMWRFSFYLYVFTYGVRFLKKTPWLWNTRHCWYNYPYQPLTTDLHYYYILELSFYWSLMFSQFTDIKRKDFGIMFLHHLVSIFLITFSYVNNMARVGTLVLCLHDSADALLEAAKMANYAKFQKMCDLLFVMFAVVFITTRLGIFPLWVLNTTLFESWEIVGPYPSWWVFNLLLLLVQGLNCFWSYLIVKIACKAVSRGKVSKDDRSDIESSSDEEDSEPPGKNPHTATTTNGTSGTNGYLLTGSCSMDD
UniProt Q99459: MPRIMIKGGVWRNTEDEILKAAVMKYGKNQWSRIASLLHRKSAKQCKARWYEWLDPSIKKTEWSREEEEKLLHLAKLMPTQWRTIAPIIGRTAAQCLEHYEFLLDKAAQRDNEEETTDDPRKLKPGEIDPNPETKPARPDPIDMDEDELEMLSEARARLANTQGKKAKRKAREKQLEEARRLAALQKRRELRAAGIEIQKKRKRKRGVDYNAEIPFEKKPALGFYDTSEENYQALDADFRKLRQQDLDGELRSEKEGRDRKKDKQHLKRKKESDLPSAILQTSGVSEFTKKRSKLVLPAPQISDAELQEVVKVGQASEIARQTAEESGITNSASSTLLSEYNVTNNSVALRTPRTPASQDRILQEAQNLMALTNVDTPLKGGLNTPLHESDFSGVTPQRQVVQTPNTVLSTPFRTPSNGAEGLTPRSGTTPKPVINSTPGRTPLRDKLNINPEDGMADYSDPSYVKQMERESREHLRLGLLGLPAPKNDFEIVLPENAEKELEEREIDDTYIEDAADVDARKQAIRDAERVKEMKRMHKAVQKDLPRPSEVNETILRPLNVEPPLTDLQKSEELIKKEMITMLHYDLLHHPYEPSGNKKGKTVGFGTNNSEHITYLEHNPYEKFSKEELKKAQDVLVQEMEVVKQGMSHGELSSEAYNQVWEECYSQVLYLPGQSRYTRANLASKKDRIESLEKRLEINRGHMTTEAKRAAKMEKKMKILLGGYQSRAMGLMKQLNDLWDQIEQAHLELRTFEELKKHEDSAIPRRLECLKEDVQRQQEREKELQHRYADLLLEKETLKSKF
UniProt Q02224: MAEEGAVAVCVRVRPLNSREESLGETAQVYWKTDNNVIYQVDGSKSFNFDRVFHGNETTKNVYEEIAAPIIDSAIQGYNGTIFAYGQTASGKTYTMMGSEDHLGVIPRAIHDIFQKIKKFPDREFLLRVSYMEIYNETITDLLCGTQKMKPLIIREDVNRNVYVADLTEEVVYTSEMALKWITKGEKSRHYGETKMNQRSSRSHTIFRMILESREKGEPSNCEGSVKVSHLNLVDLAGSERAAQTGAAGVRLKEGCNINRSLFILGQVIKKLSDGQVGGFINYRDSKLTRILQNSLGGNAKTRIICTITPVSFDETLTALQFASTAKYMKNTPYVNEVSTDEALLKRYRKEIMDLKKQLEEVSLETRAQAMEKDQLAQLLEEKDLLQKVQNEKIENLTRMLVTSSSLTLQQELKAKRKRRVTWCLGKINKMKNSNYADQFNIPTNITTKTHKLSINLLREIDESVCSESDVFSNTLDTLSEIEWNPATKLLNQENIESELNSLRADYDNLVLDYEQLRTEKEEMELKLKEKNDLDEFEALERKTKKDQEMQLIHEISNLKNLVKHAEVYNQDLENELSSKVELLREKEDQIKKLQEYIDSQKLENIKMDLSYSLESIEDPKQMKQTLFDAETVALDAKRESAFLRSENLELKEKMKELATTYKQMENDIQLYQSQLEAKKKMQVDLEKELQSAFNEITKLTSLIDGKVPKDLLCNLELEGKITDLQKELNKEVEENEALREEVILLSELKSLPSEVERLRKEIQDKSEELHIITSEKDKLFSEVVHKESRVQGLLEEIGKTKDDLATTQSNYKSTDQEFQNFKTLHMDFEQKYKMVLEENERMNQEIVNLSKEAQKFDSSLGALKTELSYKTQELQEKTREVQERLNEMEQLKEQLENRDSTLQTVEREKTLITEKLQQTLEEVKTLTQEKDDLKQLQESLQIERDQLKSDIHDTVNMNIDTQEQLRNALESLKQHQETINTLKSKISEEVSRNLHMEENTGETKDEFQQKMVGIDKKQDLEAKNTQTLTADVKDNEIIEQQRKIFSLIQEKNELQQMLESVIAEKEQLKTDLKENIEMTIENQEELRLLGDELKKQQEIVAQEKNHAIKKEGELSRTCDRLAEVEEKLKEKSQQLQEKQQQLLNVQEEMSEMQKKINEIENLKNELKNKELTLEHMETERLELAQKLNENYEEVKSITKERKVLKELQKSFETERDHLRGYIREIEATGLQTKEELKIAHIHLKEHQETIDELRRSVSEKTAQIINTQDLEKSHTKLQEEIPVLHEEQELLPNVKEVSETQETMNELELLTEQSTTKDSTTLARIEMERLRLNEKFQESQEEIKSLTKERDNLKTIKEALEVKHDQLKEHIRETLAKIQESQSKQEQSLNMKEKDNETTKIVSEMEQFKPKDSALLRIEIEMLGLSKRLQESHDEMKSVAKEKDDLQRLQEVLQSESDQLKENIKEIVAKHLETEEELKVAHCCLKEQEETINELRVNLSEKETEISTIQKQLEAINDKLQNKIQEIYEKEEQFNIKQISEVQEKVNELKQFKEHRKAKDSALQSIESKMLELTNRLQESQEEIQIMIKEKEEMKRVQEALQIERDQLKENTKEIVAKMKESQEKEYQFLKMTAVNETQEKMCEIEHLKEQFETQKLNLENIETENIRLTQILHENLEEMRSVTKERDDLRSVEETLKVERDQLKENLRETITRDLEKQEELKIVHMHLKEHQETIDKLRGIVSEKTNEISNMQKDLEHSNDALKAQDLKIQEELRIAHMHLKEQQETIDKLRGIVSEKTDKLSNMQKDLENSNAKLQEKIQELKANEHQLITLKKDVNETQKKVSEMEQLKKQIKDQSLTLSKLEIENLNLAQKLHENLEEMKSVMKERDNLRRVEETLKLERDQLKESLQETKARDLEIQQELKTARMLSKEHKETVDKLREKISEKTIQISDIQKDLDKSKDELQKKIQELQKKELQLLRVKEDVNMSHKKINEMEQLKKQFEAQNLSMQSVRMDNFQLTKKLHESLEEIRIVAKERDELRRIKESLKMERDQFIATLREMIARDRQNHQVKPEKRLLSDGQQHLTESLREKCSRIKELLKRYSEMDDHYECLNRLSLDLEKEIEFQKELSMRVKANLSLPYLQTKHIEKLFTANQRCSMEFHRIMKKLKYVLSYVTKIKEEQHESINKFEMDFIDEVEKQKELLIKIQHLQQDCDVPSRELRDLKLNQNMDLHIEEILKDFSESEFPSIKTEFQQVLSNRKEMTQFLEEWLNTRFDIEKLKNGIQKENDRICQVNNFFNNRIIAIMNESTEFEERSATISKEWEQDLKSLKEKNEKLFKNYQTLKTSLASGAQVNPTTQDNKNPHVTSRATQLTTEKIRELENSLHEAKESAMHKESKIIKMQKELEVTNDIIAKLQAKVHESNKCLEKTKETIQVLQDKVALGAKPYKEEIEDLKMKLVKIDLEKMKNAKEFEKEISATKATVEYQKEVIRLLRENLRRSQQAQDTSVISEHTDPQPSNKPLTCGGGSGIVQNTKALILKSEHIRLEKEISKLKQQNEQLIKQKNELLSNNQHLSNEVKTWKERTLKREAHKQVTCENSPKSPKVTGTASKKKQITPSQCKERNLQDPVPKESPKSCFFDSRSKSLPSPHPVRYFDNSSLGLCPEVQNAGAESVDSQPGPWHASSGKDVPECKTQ
UniProt Q5VXU3: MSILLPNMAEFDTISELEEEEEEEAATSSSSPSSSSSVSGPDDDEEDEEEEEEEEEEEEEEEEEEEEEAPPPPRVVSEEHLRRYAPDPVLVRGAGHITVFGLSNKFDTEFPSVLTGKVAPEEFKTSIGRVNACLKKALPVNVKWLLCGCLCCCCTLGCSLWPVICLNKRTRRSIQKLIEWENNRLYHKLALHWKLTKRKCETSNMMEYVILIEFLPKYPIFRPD
UniProt Q9BSY4: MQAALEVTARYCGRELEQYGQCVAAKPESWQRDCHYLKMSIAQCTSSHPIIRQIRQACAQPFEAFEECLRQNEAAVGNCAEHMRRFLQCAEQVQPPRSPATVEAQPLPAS
UniProt Q9P2B7: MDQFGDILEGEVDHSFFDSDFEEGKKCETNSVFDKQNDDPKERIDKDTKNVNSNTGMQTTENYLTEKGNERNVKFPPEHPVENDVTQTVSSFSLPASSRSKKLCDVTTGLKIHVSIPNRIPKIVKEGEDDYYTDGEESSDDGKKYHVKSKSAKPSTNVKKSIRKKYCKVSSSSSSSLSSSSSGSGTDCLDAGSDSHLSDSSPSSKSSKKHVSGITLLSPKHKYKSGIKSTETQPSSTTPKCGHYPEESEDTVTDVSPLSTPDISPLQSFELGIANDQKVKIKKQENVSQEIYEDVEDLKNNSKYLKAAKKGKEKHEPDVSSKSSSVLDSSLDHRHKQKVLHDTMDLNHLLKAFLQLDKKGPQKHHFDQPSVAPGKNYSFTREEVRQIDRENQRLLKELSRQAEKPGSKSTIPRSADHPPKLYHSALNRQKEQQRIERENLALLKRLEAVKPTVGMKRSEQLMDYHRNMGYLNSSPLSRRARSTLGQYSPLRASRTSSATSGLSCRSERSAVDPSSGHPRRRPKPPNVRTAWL
UniProt P42773: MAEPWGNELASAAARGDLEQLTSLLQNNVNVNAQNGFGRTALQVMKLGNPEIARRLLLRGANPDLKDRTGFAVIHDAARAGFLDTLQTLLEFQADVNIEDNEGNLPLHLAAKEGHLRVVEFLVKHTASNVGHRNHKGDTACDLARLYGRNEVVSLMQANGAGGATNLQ
UniProt Q9UPN4: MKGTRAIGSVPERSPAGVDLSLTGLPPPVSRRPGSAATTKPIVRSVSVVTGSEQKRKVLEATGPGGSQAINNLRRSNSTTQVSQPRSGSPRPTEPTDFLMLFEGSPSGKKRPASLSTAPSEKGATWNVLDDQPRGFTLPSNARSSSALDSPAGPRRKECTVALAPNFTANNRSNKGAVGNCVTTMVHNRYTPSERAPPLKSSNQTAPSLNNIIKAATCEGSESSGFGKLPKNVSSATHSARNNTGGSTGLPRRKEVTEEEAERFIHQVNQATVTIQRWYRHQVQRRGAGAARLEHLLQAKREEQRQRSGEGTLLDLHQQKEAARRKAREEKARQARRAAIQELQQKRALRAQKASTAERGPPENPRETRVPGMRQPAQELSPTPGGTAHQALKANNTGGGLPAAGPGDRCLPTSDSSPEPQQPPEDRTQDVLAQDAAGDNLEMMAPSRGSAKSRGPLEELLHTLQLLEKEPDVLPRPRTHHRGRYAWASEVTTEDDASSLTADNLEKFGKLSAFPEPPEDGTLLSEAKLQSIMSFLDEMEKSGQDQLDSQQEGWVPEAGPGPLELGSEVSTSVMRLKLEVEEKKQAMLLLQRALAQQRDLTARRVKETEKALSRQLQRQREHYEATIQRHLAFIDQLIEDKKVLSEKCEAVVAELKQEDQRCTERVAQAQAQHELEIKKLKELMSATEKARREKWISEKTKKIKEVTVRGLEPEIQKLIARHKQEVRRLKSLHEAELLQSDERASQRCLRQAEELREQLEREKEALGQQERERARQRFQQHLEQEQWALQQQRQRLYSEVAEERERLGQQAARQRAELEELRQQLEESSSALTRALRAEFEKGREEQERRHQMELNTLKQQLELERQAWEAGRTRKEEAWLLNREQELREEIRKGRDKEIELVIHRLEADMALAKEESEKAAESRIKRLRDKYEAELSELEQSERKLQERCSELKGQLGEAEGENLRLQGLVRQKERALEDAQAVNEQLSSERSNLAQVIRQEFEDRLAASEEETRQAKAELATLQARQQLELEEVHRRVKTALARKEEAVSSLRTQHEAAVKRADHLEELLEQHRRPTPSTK
UniProt O14519: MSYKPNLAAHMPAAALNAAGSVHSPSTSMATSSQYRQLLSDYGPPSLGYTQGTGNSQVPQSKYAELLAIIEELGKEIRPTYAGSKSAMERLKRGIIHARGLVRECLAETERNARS
UniProt Q9BUK0: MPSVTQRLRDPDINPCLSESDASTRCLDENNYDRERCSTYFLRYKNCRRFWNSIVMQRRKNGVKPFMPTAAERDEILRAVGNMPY
UniProt Q9UKJ5: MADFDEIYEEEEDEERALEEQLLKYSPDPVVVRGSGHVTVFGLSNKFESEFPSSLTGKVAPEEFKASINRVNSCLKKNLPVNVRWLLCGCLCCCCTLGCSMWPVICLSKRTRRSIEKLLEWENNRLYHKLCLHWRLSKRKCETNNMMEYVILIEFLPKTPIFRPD
UniProt Q49AH0, whole entry, looked up: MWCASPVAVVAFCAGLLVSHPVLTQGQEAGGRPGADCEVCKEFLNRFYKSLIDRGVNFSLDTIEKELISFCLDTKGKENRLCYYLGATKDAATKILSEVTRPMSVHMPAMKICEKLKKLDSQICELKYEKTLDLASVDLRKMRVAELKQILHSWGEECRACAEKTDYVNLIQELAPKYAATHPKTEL

How the values were obtained:
Experiment in all cases: log2 fold change, soluble protein after heating vs DMSO (PISA); higher = thermal stabilisation; K562 cells, 10 uM, 30 min; active = over 0.2 and 3.5 SD of the protein, either way, in both replicates (recomputed)
[1] = compound: CC1=C(C=C(C=C1)NC(=O)C2=CC(=CC=C2)C(C)(C)C#N)NC3=CC4=C(C=C3)N=CN(C4=O)C
Procedure, shortened: (§1)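 K562 cells (2×10^6 cells/mL) were treated with 10 μM compound for 30 min, and aliquots were heated for 3 min over 48°C-58°C. Pooled aliquots were extracted in PBS with 0.5% NP-40 at 4°C, and the supernatant after 21,000xg for 90 min was measured by TMTpro 16plex LC-MS/MS with channel sums equalised. Reported thermal stability, relative to control samples and from duplicates, is a log2 fold change.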

[2] = compound: CC1=CC=C(C=C1)SC2=C3C=C(SC3=CN=C2)C(=O)N
Procedure, shortened: as §1

Nexturastat A = compound: CCCCN(Cc1ccc(C(=O)NO)cc1)C(=O)Nc1ccccc1 [Nexturastat A]
Procedure, shortened: as §1

vemurafenib = compound: CCCS(=O)(=O)Nc1ccc(F)c(C(=O)c2c[nH]c3ncc(-c4ccc(Cl)cc4)cc23)c1F [vemurafenib]
Procedure, shortened: as §1

[3] = compound: CCCS(=O)(=O)Nc1ccc(F)c(C(=O)c2c[nH]c3ncc(Cl)cc23)c1F
Procedure, shortened: as §1

[4] = compound: CCCc1cc(C)[nH]c(=O)c1CNC(=O)c1cc(-c2ccnc(N3CCN(C)CC3)c2)cc2c1cnn2C(C)C
Procedure, shortened: as §1

givinostat = compound: CCN(CC)Cc1ccc2cc(COC(=O)Nc3ccc(C(=O)NO)cc3)ccc2c1 [givinostat]
Procedure, shortened: as §1

barasertib = compound: CCN(CCCOc1ccc2c(Nc3cc(CC(=O)Nc4cccc(F)c4)[nH]n3)ncnc2c1)CCOP(=O)(O)O [barasertib]
Procedure, shortened: as §1

[5] = compound: CC1=C(C=C(C=C1)NC(=O)C2=CC(=CC=C2)N(C)C)NC(=O)C3=CC=C(C=C3)O
Procedure, shortened: as §1

[6] = compound: CC1=NC(=CC=C1)C2=C(N=C(N2)C(C)(C)C)C3=CC4=NC=CN=C4C=C3
Procedure, shortened: as §1

Measured: log2 fold change

CERS6 isoform 2 (UniProt Q6ZMG9)
inactive: [1] -0.099 | [2] 0.022 | Nexturastat A -0.083 | vemurafenib -0.041 | [3] 0 | [4] 0.048 | givinostat -0.012 | barasertib 0.022

CEP170B (UniProt Q9Y4F5)
inactive: [1] -0.043 | [5] -0.013 | [6] -0.01 | Nexturastat A 0.041 | vemurafenib -0.049 | [4] 0.041 | barasertib 0.027

CEND1 (UniProt Q8N111)
inactive: [1] -0.094 | [5] 0.045 | [2] -0.034 | [3] -0.01 | givinostat 0.05

CDC5L (UniProt Q99459)
inactive: [1] -0.115 | [5] -0.008 | [6] -0.125 | vemurafenib -0.074 | [4] 0.063 | givinostat 0.247

CEP350 (UniProt Q5VT06)
inactive: [1] 0.02 | [5] 0.009 | [2] 0.114 | [6] -0.153 | Nexturastat A -0.173 | [3] 0.076 | [4] 0.118

CHAF1A (UniProt Q13111)
inactive: [1] 0.035 | [5] -0.054 | [2] 0.087 | [6] -0.116 | Nexturastat A 0.088 | [3] 0.026 | [4] -0.097 | givinostat 0.149 | barasertib 0.107

CENPE (UniProt Q02224)
inactive: [1] -0.018 | [5] 0.063 | [2] 0.022 | [6] -0.096 | vemurafenib 0.047 | [3] -0.108 | givinostat 0.285 | barasertib -0.1

CHIC1 (UniProt Q5VXU3)
inactive: [1] -0.096 | [5] -0.064 | [2] -0.015 | Nexturastat A 0.216 | [3] -0.089 | [4] -0.352 | givinostat -0.134 | barasertib 0.175

CENPS (UniProt Q8N2Z9)
inactive: [1] -0.03 | [2] -0.084 | [6] -0.171 | Nexturastat A -0.017 | vemurafenib 0.041 | [3] -0.004 | [4] -0.046 | givinostat -0.025 | barasertib 0.123

CHCHD5 (UniProt Q9BSY4)
inactive: [1] 0 | [5] -0.039 | [2] 0.013 | [6] 0.083 | [3] 0.032 | [4] 0.014 | givinostat -0.081 | barasertib 0.092

CFAP97 (UniProt Q9P2B7)
inactive: [1] -0.085 | [5] -0.027 | [2] 0.108 | [6] -0.041 | Nexturastat A 0.276 | vemurafenib -0.149 | [3] -0.031 | givinostat 0.1 | barasertib -0.088

CDK7 (UniProt P50613)
inactive: [1] -0.018 | [5] 0.012 | [2] 0.013 | [6] 0.034 | Nexturastat A 0.021 | vemurafenib 0.01 | [3] 0 | [4] -0.034 | givinostat 0.004 | barasertib 0.004

2 consecutive entries out of the list so far, quoted:
CHIC1 (UniProt Q5VXU3)
inactive: [1] -0.096 | [5] -0.064 | [2] -0.015 | Nexturastat A 0.216 | [3] -0.089 | [4] -0.352 | givinostat -0.134 | barasertib 0.175

CENPS (UniProt Q8N2Z9)
inactive: [1] -0.03 | [2] -0.084 | [6] -0.171 | Nexturastat A -0.017 | vemurafenib 0.041 | [3] -0.004 | [4] -0.046 | givinostat -0.025 | barasertib 0.123

Going on with the list:

CHMP3 (UniProt Q9Y3E7)
inactive: [1] -0.016 | [5] 0.03 | [2] 0.013 | [6] -0.021 | Nexturastat A -0.095 | vemurafenib -0.021 | [3] 0.007 | [4] -0.122 | givinostat -0.021 | barasertib 0.039

CDK19 (UniProt Q9BWU1)
inactive: [1] -0.032 | [5] 0.212 | [2] 0.246 | Nexturastat A -0.039 | vemurafenib 0.057 | [3] -0.026 | [4] -0.109 | givinostat -0.133

CDKN2C (UniProt P42773)
inactive: [1] -0.021 | [5] -0.097 | [2] 0.029 | [6] -0.034 | vemurafenib 0.085 | [3] -0.057 | [4] -0.057 | givinostat -0.092 | barasertib 0.11

CEP131 (UniProt Q9UPN4)
inactive: [1] -0.2 | [2] 0.11 | [6] 0.006 | Nexturastat A 0.191 | [3] 0.037 | [4] 0.241 | givinostat -0.002

CHD4 isoform 2 (UniProt Q14839)
inactive: [1] 0.011 | [5] -0.028 | [2] 0.062 | [6] -0.014 | Nexturastat A 0.087 | vemurafenib 0.068 | [3] 0.116 | [4] 0.101 | givinostat 0.154 | barasertib 0.121

CEP135 (UniProt Q66GS9)
inactive: [1] 0.151 | [6] -0.128 | Nexturastat A 0.16 | barasertib 0.051

CEP192 (UniProt Q8TEP8)
inactive: [1] -0.14 | [2] 0.231 | [6] -0.188 | Nexturastat A -0.061 | vemurafenib -0.054 | [3] 0.088 | [4] -0.14 | givinostat 0.028 | barasertib 0.028

CHMP4A isoform 2 (UniProt Q9BY43)
inactive: [1] -0.021 | [5] 0.034 | [2] -0.021 | [6] 0.029 | Nexturastat A -0.082 | vemurafenib -0.01 | [3] -0.053 | [4] -0.028 | givinostat -0.027 | barasertib 0.011

CENPU (UniProt Q71F23)
inactive: [1] 0.148 | [2] -0.583 | [6] -0.075 | Nexturastat A 0.114 | [3] 0.097 | givinostat 0.09

CENPV (UniProt Q7Z7K6)
inactive: [1] -0.088 | [5] 0.019 | [2] 0.099 | Nexturastat A 0.435 | [3] -0.125

CENPJ (UniProt Q9HC77)
inactive: [1] -0.108 | [5] 0.024 | [2] -0.03 | [6] 0.196 | Nexturastat A 0.006 | [3] -0.063 | givinostat 0.158

CEP152 (UniProt O94986)
inactive: [1] -0.135 | [5] 0.085 | [2] -0.029 | [6] -0.097 | vemurafenib -0.156 | [3] -0.011 | [4] 0.105 | givinostat 0.313 | barasertib 0

CDK2AP1 (UniProt O14519)
inactive: [1] 0 | [5] 0.05 | [2] -0.008 | Nexturastat A -0.111 | [3] -0.096 | [4] 0.047 | givinostat 0.049 | barasertib 0.01

CEP120 (UniProt Q8N960)
inactive: [1] 0.117 | [5] -0.058 | [2] -0.242 | [6] -0.349 | Nexturastat A 0.33 | vemurafenib 0.006 | [3] 0.034 | [4] 0.41 | barasertib -0.047

CHCHD7 isoform 4 (UniProt Q9BUK0)
inactive: [1] -0.034 | [5] -0.051 | [2] 0.051 | [6] 0.011 | vemurafenib -0.17 | [3] 0.109 | [4] -0.133 | givinostat -0.062 | barasertib -0.138

CHIC2 (UniProt Q9UKJ5)
inactive: [1] 0.009 | [5] 0.074 | [2] -0.002 | Nexturastat A 0.043 | vemurafenib 0.006 | [3] 0.094 | [4] -0.027 | givinostat -0.043 | barasertib -0.227

CDNF (UniProt Q49AH0)
inactive: [6] 0.191 | vemurafenib 0.01

CDH5 (UniProt P33151)
inactive: [1] -0.104 | Nexturastat A 0.001 | [4] 0.031 | givinostat -0.124

CFL1 (UniProt E9PP50)
inactive: givinostat -0.04
